Reference: the supplement of paper PMC5407854, “Inhibitor of ppGalNAc-T3-mediated O-glycosylation blocks cancer cell invasiveness and lowers FGF23 levels” (eLife, 2017)
Some of the results follow. Most entries show no effect beyond the scatter of the controls.

Columns and labels:
ppGalNAc-T3 sensor = assay: T3 sensor activation Q score (MG/GFP ratio z-score vs DMSO controls) (SD units); higher = more sensor activation (inhibition of ppGalNAc-T3 glycosylation); details: HEK293 sensor cells; 10 µM; 6 h
Method: (§1)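 Cells were treated with compound at 10 uM for 6 h, then MG/GFP ratio was read by flow cytometry (10,000 cells per well, duplicate wells). Q = (R - R_neg)/SD_neg relative to DMSO vehicle controls; the signal rises when the glycosyltransferase is inhibited.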

ppGalNAc-T2 sensor = assay: T2 sensor activation Q score (MG/GFP ratio z-score vs DMSO controls) (SD units); higher = more sensor activation (inhibition of ppGalNAc-T2 glycosylation); details: HEK293 sensor cells; 10 µM; 6 h
Method: as §1

## Cc1ccc(NCc2ccc([N+](=O)[O-])s2)cc1
ppGalNAc-T3 sensor
  T3 sensor activation Q score: -0.11
ppGalNAc-T2 sensor
  T2 sensor activation Q score: 0.805

## CCc1ccccc1NC(=O)c1ccc(C(C)(C)C)cc1
ppGalNAc-T3 sensor
  T3 sensor activation Q score: -0.17
ppGalNAc-T2 sensor
  T2 sensor activation Q score: -0.875

## NNc1nc(-c2ccccc2)cc(-c2ccc(F)cc2)n1
ppGalNAc-T3 sensor
  T3 sensor activation Q score: 2.35
ppGalNAc-T2 sensor
  T2 sensor activation Q score: -0.34

## O=C(O)CN1C(=O)c2ccc(Br)cc2C1=O
ppGalNAc-T3 sensor
  T3 sensor activation Q score: 0.11
ppGalNAc-T2 sensor
  T2 sensor activation Q score: 0.195

## COc1cc(C)c(CN2CCCN(C)CC2)cc1C
ppGalNAc-T3 sensor
  T3 sensor activation Q score: -0.025
ppGalNAc-T2 sensor
  T2 sensor activation Q score: -0.56

## O=C(NCCC1=CCCCC1)c1ccc(CN2CCOCC2)cc1
ppGalNAc-T3 sensor
  T3 sensor activation Q score: 1.35
ppGalNAc-T2 sensor
  T2 sensor activation Q score: 0.38

## CC(=O)N(C)c1ccc(NC(=O)Nc2ccc(Cl)cc2)cc1
ppGalNAc-T3 sensor
  T3 sensor activation Q score: 1.23
ppGalNAc-T2 sensor
  T2 sensor activation Q score: 0.435

## OC(CN1CCCCCC1)CN(c1ccccc1)c1ccccc1 (stereo unspecified)
ppGalNAc-T3 sensor
  T3 sensor activation Q score: 0.555
ppGalNAc-T2 sensor
  T2 sensor activation Q score: 0.99

## CN1CCCN(Cc2cccc(Br)c2)CC1
ppGalNAc-T3 sensor
  T3 sensor activation Q score: -0.135
ppGalNAc-T2 sensor
  T2 sensor activation Q score: -0.4

## CN1CCCN(Cc2ccc(Cl)c(Cl)c2)CC1
ppGalNAc-T3 sensor
  T3 sensor activation Q score: 0.315
ppGalNAc-T2 sensor
  T2 sensor activation Q score: 1.21

## Fc1ccccc1CN1CCOCC1
ppGalNAc-T3 sensor
  T3 sensor activation Q score: 0.825
ppGalNAc-T2 sensor
  T2 sensor activation Q score: 0.11

## CCN1CCN(CC(O)COc2cc(C)c(Cl)c(C)c2)CC1 (stereo unspecified)
ppGalNAc-T3 sensor
  T3 sensor activation Q score: -0.155
ppGalNAc-T2 sensor
  T2 sensor activation Q score: -0.66

## CCN(CC)CCN(C)Cc1ccc([N+](=O)[O-])cc1
ppGalNAc-T3 sensor
  T3 sensor activation Q score: 0.15
ppGalNAc-T2 sensor
  T2 sensor activation Q score: 0.28

## CC(=O)C1=C(O)C(=O)N(Cc2ccccc2)C1c1ccccc1 (stereo unspecified)
ppGalNAc-T3 sensor
  T3 sensor activation Q score: 0.46
ppGalNAc-T2 sensor
  T2 sensor activation Q score: 0.21

## Cc1ccccc1NC1=CC(=O)CC(c2ccccc2)C1 (stereo unspecified)
ppGalNAc-T3 sensor
  T3 sensor activation Q score: -0.175
ppGalNAc-T2 sensor
  T2 sensor activation Q score: -0.945

## O=C(Nc1ccccc1)NC1CCCCCCC1
ppGalNAc-T3 sensor
  T3 sensor activation Q score: -1.26
ppGalNAc-T2 sensor
  T2 sensor activation Q score: -0.37

## Cc1cn(CC(=O)c2ccccc2)c2ccccc12
ppGalNAc-T3 sensor
  T3 sensor activation Q score: -0.115
ppGalNAc-T2 sensor
  T2 sensor activation Q score: -0.435

## CCN(C1CCCCC1)S(=O)(=O)c1ccc(OC)c(OC)c1
ppGalNAc-T3 sensor
  T3 sensor activation Q score: 0.12
ppGalNAc-T2 sensor
  T2 sensor activation Q score: 0.29

## CCCCOc1ccc(CN2CCN(c3ccccn3)CC2)cc1
ppGalNAc-T3 sensor
  T3 sensor activation Q score: 0.39
ppGalNAc-T2 sensor
  T2 sensor activation Q score: -0.595

## NC12CC3CC(C1)CC(CC(=O)O)(C3)C2
ppGalNAc-T3 sensor
  T3 sensor activation Q score: 0.4
ppGalNAc-T2 sensor
  T2 sensor activation Q score: -0.77

## CCCCOc1ccc(CN2CCN(c3ccccc3F)CC2)cc1
ppGalNAc-T3 sensor
  T3 sensor activation Q score: 0.04
ppGalNAc-T2 sensor
  T2 sensor activation Q score: 0.075

## CNC(=O)c1ccc(NC(=O)Nc2ccccc2)cc1
ppGalNAc-T3 sensor
  T3 sensor activation Q score: -0.8
ppGalNAc-T2 sensor
  T2 sensor activation Q score: -0.93

## NC(=O)c1ccc(NC(=O)Nc2ccc(Cl)cc2)cc1
ppGalNAc-T3 sensor
  T3 sensor activation Q score: -0.14
ppGalNAc-T2 sensor
  T2 sensor activation Q score: -1.75

## COc1cc(NC(=O)Cc2ccccc2)c(OC)cc1Cl
ppGalNAc-T3 sensor
  T3 sensor activation Q score: -0.215
ppGalNAc-T2 sensor
  T2 sensor activation Q score: -0.02

## O=C(c1ccccc1F)n1nnc2ccccc21
ppGalNAc-T3 sensor
  T3 sensor activation Q score: 0.925
ppGalNAc-T2 sensor
  T2 sensor activation Q score: 1.45

## Cc1ccc(C)c(N2CCN(Cc3ccc(C)s3)CC2)c1
ppGalNAc-T3 sensor
  T3 sensor activation Q score: 1.22
ppGalNAc-T2 sensor
  T2 sensor activation Q score: -0.515

## Cc1cccc(N2C(=O)CC(N3CCCCC3)C2=O)c1 (stereo unspecified)
ppGalNAc-T3 sensor
  T3 sensor activation Q score: 1.3
ppGalNAc-T2 sensor
  T2 sensor activation Q score: -0.47

## Oc1cccnc1-c1ccccc1
ppGalNAc-T3 sensor
  T3 sensor activation Q score: -0.195
ppGalNAc-T2 sensor
  T2 sensor activation Q score: 0.62

## O=C1CC(NCc2ccccc2)C(=O)N1c1cccc(Cl)c1 (stereo unspecified)
ppGalNAc-T3 sensor
  T3 sensor activation Q score: 0.485
ppGalNAc-T2 sensor
  T2 sensor activation Q score: -1.2

## CN(C)CCNc1ccc([N+](=O)[O-])cc1Cl
ppGalNAc-T3 sensor
  T3 sensor activation Q score: 0.65
ppGalNAc-T2 sensor
  T2 sensor activation Q score: 0.12

## COc1ccccc1CN1CCCCCC1
ppGalNAc-T3 sensor
  T3 sensor activation Q score: 0.415
ppGalNAc-T2 sensor
  T2 sensor activation Q score: -0.05

## Cc1cc(C)cc(NCC(=O)Nc2c(C)cccc2C)c1
ppGalNAc-T3 sensor
  T3 sensor activation Q score: -0.83
ppGalNAc-T2 sensor
  T2 sensor activation Q score: -1.77

## CC(=O)c1cccc(NC(=O)COc2ccc(Cl)cc2)c1
ppGalNAc-T3 sensor
  T3 sensor activation Q score: 0.58
ppGalNAc-T2 sensor
  T2 sensor activation Q score: -1.13

## CN(Cc1ccc2c(c1)OCO2)C1CCCCC1
ppGalNAc-T3 sensor
  T3 sensor activation Q score: 0.53
ppGalNAc-T2 sensor
  T2 sensor activation Q score: -0.275

## O=C(O)c1c2c(nc3ccccc13)CCCC2
ppGalNAc-T3 sensor
  T3 sensor activation Q score: -0.01
ppGalNAc-T2 sensor
  T2 sensor activation Q score: -0.955

## CN1C(=O)C(=O)C(=C(O)c2ccccc2)C1c1ccccc1F (stereo unspecified)
ppGalNAc-T3 sensor
  T3 sensor activation Q score: 0.38
ppGalNAc-T2 sensor
  T2 sensor activation Q score: -0.91

## CS(=O)(=O)Nc1ccc(S(=O)(=O)N2CCCCC2)cc1
ppGalNAc-T3 sensor
  T3 sensor activation Q score: 0.6
ppGalNAc-T2 sensor
  T2 sensor activation Q score: -0.325

## Nc1cc(C(=O)O)ccc1Nc1ccccc1
ppGalNAc-T3 sensor
  T3 sensor activation Q score: 1.3
ppGalNAc-T2 sensor
  T2 sensor activation Q score: -0.205

## CCN(CC)CCN1C(=O)C(O)=C(C(C)=O)C1c1ccc(Br)cc1 (stereo unspecified)
ppGalNAc-T3 sensor
  T3 sensor activation Q score: 0.115
ppGalNAc-T2 sensor
  T2 sensor activation Q score: -0.085

## COc1c[nH]n(-c2ccccc2)c(=O)c1=O
ppGalNAc-T3 sensor
  T3 sensor activation Q score: 1.12
ppGalNAc-T2 sensor
  T2 sensor activation Q score: 1.15

## CCN(CC)CC1CCc2c(c3ccccc3n2C)C1=O (stereo unspecified)
ppGalNAc-T3 sensor
  T3 sensor activation Q score: 1.55
ppGalNAc-T2 sensor
  T2 sensor activation Q score: 0.515

## O=C(O)c1ccc(Cl)c(S(=O)(=O)N2CCOCC2)c1
ppGalNAc-T3 sensor
  T3 sensor activation Q score: -0.055
ppGalNAc-T2 sensor
  T2 sensor activation Q score: 0.395

## CCN(CCN(C)C)Cc1ccccc1Cl
ppGalNAc-T3 sensor
  T3 sensor activation Q score: 0.175
ppGalNAc-T2 sensor
  T2 sensor activation Q score: 0.82

## CN(Cc1ccccc1)C(=O)c1ccc(Cl)cc1Cl
ppGalNAc-T3 sensor
  T3 sensor activation Q score: -0.1
ppGalNAc-T2 sensor
  T2 sensor activation Q score: 0.37

## COc1ccccc1C1CC(=O)N(C)C2=C1C(=O)CC(C)(C)C2 (stereo unspecified)
ppGalNAc-T3 sensor
  T3 sensor activation Q score: -0.195
ppGalNAc-T2 sensor
  T2 sensor activation Q score: -0.275

## Cc1ccc(C)c(C(C)NC(=O)C(C)Oc2ccccc2)c1 (stereo unspecified)
ppGalNAc-T3 sensor
  T3 sensor activation Q score: 0.905
ppGalNAc-T2 sensor
  T2 sensor activation Q score: -0.1

## COc1cccc(Nc2ccccc2C)c1
ppGalNAc-T3 sensor
  T3 sensor activation Q score: -0.385
ppGalNAc-T2 sensor
  T2 sensor activation Q score: -0.44

## CC(O)C#CC1(C)CCCC(C)(C)O1 (stereo unspecified)
ppGalNAc-T3 sensor
  T3 sensor activation Q score: 0.49
ppGalNAc-T2 sensor
  T2 sensor activation Q score: 0.03
